One substance from PMC6793842 can be followed below.

Chains of the proteins cited; added tags and fusions are not shown. Residues count along the entry.
UniProt Q8ILP3, residues 23-945: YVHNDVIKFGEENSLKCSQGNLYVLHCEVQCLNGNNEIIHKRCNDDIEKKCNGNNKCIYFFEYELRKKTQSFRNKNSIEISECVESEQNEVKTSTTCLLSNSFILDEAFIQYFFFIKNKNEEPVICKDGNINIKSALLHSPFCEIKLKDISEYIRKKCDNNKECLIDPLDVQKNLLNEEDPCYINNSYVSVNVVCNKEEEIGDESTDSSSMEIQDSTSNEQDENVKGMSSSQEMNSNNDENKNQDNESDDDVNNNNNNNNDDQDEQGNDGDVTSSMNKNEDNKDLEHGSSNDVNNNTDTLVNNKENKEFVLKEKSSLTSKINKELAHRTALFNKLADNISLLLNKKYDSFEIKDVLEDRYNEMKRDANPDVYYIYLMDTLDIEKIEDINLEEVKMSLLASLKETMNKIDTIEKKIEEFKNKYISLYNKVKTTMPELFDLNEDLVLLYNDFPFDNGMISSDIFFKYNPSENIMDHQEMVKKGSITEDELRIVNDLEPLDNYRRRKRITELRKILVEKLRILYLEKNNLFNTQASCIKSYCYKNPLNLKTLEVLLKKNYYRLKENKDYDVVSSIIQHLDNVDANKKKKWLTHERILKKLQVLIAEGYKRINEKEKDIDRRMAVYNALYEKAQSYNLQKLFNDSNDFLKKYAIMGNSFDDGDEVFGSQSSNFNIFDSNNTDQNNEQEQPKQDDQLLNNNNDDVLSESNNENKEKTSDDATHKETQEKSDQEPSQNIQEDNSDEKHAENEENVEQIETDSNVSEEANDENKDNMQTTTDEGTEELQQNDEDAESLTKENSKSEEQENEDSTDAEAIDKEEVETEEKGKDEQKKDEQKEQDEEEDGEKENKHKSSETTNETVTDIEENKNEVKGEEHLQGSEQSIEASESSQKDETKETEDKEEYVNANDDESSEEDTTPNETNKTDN
UniProt Q8IFM5, residues 25-526: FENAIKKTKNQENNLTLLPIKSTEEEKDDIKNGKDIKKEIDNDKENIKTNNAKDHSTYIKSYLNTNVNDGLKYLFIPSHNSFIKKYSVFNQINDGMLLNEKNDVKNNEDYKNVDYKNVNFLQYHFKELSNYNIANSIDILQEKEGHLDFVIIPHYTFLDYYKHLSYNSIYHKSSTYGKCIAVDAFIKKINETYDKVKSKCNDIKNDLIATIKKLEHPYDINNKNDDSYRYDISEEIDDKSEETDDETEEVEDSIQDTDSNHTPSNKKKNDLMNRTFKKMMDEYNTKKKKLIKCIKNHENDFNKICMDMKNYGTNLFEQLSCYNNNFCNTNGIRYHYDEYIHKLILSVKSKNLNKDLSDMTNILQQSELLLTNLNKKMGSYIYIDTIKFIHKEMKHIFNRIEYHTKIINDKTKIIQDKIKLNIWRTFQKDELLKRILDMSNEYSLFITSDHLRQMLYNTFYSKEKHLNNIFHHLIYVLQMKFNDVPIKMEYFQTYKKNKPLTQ

This assay has as its target P. falciparum P113, biotinylated bait (P. falciparum) (UniProt Q8ILP3). Description: AVEXIS (avidity-based extracellular interaction screening).

These are yes or no findings as the source states them, for the method shown. Some results given as binding are weak or reduced against the parent protein; the word gives no strength.

“P. falciparum RH5, AVEXIS prey (from UniProt Q8IFM5 25-526) (ligand)”: the binding result is recorded as “binds”.
